PubChem BioAssay AID1347076 (National Center for Advancing Translational Sciences (NCATS), 2019)
The whole screen tested about 400,000 compounds, of which about 13,000 (3.2%) were called active. Inconclusive results, whose numbers are uncertain, are shown with a selection of clear calls. Calls come from the whole dose curve; as a rule, active = well fitted cell-killing curve with a large enough effect; inconclusive = small, poorly fitted or top-dose-only effect, or effect the other way; inactive = flat fitted curve, though single readings scatter. Where the call is inconclusive, the potency comes from a doubtful curve fit.

test: qHTS assay for MDR1-selective chemotherapeutics: Primary screen using the drug-selected MDR subline cells KB-V1; details: KB-V1 MDR cells viability, CellTiter-Glo, 72 h; activity change, negative = cytotoxicity: at 46.1 µM (top of the series); note: nearly all actives have a fitted effect of over 60% in size
How it was run: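 Cytotoxicity toward P-gp-expressing KB-V1 cells was determined as loss of CellTiter-Glo luminescence after 72 h at 37 degrees C. Compounds were tested in quantitative HTS format across a concentration range, with curves fitted to normalized data.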
% is set by controls: 0 for no effect and ±100 for the full control effect; potency is the fitted concentration of half-maximal effect.

| Compound | Potency | activity change, negative = cytotoxicity |
| --- | --- | --- |
| CC(=O)Nc1ccc(Nc2nc(C)nc3c2nnn3Cc2ccccc2Cl)cc1 | inconclusive: 20.6 µM [cytotoxic, single point] | – |
| CCOC(=O)c1cnc2ccc(C(=O)OC)cc2c1Nc1ccc(N2CCOCC2)cc1 | inconclusive: 29.1 µM [cytotoxic, single point] | – |
| Cc1nc(C)c(-c2csc(NCCc3ccccc3)n2)s1 | inconclusive: 16.4 µM [cytotoxic, partial curve] | – |
| CN(C)CCCN(C(=O)c1ccco1)c1nc2ccc(Cl)cc2s1 | – | inactive: -3.12% |
| COc1ccc(-n2c(SCC#N)nnc2-c2ccc(NS(=O)(=O)c3ccc(C)cc3)cc2)cc1 | inconclusive: 29.1 µM [cytotoxic, single point] | – |
| COc1ccc(OC)c(NC(=O)Cc2c(C)n(C(=O)c3ccc(Cl)cc3)c3ccc(OC)cc23)c1 | inconclusive: 29.1 µM [cytotoxic, single point] | – |
| CC(C)OC(=O)c1cccc(C(=O)Nc2cccc(NC(=O)c3cccc(C(=O)OC(C)C)n3)n2)n1 | inconclusive: 3.66 µM [cytotoxic, partial curve, poor fit] | – |
| COc1ccc(C(=O)COC(=O)C(CC(C)C)N2C(=O)c3ccccc3C2=O)cc1 (stereo unspecified) | active: 8.2 µM | – |
| CCC(C(=O)Nc1ccccc1F)n1nc(C)c2c(C)n(-c3ccccc3)nc2c1=O (stereo unspecified) | – | inactive: -0.823% |
| COc1cc2c(cc1O)C(Cc1ccc(O)cc1)[N+](C)([O-])CC2 (stereo unspecified) | inconclusive: 11.6 µM [rising, partial curve] | – |
| C#CCN1C(=O)C(O)(CC(=O)c2ccc(OC)c(OC)c2)c2ccccc21 (stereo unspecified) | active: 18.4 µM | – |
| CC(C)OC(=O)c1ccccc1C(=O)c1ccc(N)c([N+](=O)[O-])c1 | inconclusive: 32.6 µM [cytotoxic, single point] | – |
| CCCCN1C(=O)C(CC(=O)NC(c2ccccc2)c2ccccc2)CC(C(=O)N(CC)CC)=C1C (stereo unspecified) | inconclusive: 6.51 µM [cytotoxic, full curve, poor fit] | – |
| CC(C)c1ccc(OCC(O)CN2CCN(c3ccccn3)CC2)cc1 (stereo unspecified) | – | inconclusive: 37.8% |
| CCCCCCCCCC[n+]1ccc(/C=C/c2c(C)[nH]c3ccccc23)c2ccccc21 | inconclusive: 20.6 µM [cytotoxic, single point] | – |
| CCc1nc2c(OCCc3cccc(OC)c3)cccn2c1N(C)C(=O)c1ccc(OC)cc1 | inconclusive: 23.1 µM [cytotoxic, single point] | – |
| Cc1ccccc1-c1ccc(CN2C(C)C(=O)N(Cc3cn(Cc4ccco4)nn3)CCS2(=O)=O)cc1 (stereo unspecified) | inconclusive: 14.6 µM [cytotoxic, partial curve, poor fit] | – |
| Cc1c(Cl)c([N+](=O)[O-])nn1CCCC(=O)Nc1cccnc1 | inconclusive: 20.6 µM [cytotoxic, partial curve, poor fit] | – |
| O=C(NCCCc1ccncc1)C1CCC(=O)N(Cc2cccc(F)c2)C1 (stereo unspecified) | inconclusive: 29.1 µM [rising, single point] | – |
| O=C(c1noc2c1CCCC2)N1CCN(c2ccc(F)cc2)CC1 | inconclusive: 20.6 µM [cytotoxic, single point] | – |
| C[C@@H]1CN([C@H](C)CO)C(=O)c2cc(Br)cnc2O[C@@H]1CN(C)Cc1ccc(-c2ccccc2)cc1 | inconclusive: 9.2 µM [cytotoxic, partial curve] | – |
| COc1ccc(OCc2cc(C(=O)N(Cc3nccn3C)C(C)C)no2)c2ccccc12 | – | inactive: 6.36% |
| CCc1cc(-c2n[nH]c(=S)n2Cc2ccccc2)cs1 | active: 20.6 µM | – |
| CC1CCN(Cc2c(O)ccc3c(=O)c(-c4ccc(Cl)cc4)c(C(F)(F)F)oc23)CC1 | inconclusive: 18.4 µM [rising, partial curve] | – |

| Compound | Potency | activity change, negative = cytotoxicity |
| --- | --- | --- |
| COc1ccc(NC(=O)CSc2nc(N)cc(=O)[nH]2)cc1S(=O)(=O)N1CCCCC1 | inconclusive: 25.9 µM [rising, single point] | – |
| Cc1ccc(CN2CCN(C3CCN(C(=O)c4ccc(C)cc4)CC3)C(=O)C2=O)cc1 | – | inactive: 0% |
| CCN(CC)c1ccc(/C=N/NC(=O)c2cnccn2)cc1 | – | inactive: 0% |
| O=C(CSc1c(Cl)cccc1Cl)NC1CCCc2ccccc21 (stereo unspecified) | active: 14.6 µM | – |
| Cc1csc(=O)n1CC(=O)Nc1ccc(S(C)(=O)=O)cc1 | inconclusive: 23.1 µM [rising, single point] | – |
| OCC[C@@H]1C[C@H](O)[C@@H](O)[C@@]2(OCCc3cc(Cl)ccc32)O1 | – | inactive: 0% |
| COc1ccc(OC)c(CN(CCCN2CCOCC2)C(=O)Nc2ccccc2)c1 | inconclusive: 10.3 µM [cytotoxic, partial curve] | – |
| Cc1cc(-n2cnnn2)cc(C)c1S(=O)(=O)NCCOc1ccccc1 | – | inactive: 0.124% |
| CCC(=O)Nc1nc2ccccc2n1Cc1ccccc1 | – | inactive: 0% |
| CCN1CCN(CC2COc3ccccc3O2)CC1 (stereo unspecified) | – | inactive: 5.34% |
| CC(Oc1ccc(Br)cc1)C(=O)NNC(=O)CCN1CCN(c2ccccc2)CC1 (stereo unspecified) | – | inactive: -22.6% |
| COc1cc(CNn2nnnc2N)cc(Br)c1OCc1c(Cl)cccc1Cl | active: 20.6 µM | – |
| CCOC(=O)c1ccccc1NC(=O)CSc1cc(C)[nH]c(=O)n1 | – | inactive: -13.2% |
| COC(=O)c1ccc(Cn2cnc3c(Cl)ncnc32)cc1 | – | inactive: -1.24% |
| CCCCCCN1C=CC(=C2C(=O)c3ccccc3C2=O)C=C1 | – | inactive: -12.4% |
| CCOC(=O)N1CCN(C(=O)c2ccccc2-c2ccccc2)CC1 | active: 4.61 µM | – |
| Cc1cc(/C=N/n2cnnc2)c(C)n1-c1ccc(C(=O)O)cc1 | – | inactive: -1.32% |
| CCOc1ccc(/C=N/Nc2ccccn2)cc1OC | inconclusive: 23.1 µM [cytotoxic, single point] | – |
| COc1ccccc1OCC(=O)NNC(=O)Nc1ccc(Cl)cc1 | active: 10.3 µM | – |
| C[C@@H]1CN([C@H](C)CO)C(=O)c2cc(NC(=O)NC3CCCCC3)ccc2O[C@H]1CN(C)S(C)(=O)=O | inconclusive: 9.2 µM [rising, partial curve, poor fit] | – |
| COc1ccc(C2CC(c3cccc(OC)c3)=NN2c2ccc(S(N)(=O)=O)cc2)cc1 (stereo unspecified) | – | inactive: 10.7% |
| CS(=O)(=O)N1CCCCC1c1cc(C(=O)NCc2ccc(Cl)c(Cl)c2)no1 (stereo unspecified) | – | inactive: 0.234% |
| O=C(/C=C/c1cccnc1)c1cc(F)ccc1O | – | inactive: -7.28% |
| Cc1cc(C)c2[nH]c(=O)c(CN(Cc3cccs3)C(=S)NCC3CCCO3)cc2c1 (stereo unspecified) | inconclusive: 23.1 µM [cytotoxic, single point] | – |

Part of the list above, comma-delimited:
Compound,Potency,"activity change, negative = cytotoxicity"
CCOC(=O)N1CCN(C(=O)c2ccccc2-c2ccccc2)CC1,active: 4.61 µM,–
Cc1cc(/C=N/n2cnnc2)c(C)n1-c1ccc(C(=O)O)cc1,–,inactive: -1.32%
CCOc1ccc(/C=N/Nc2ccccn2)cc1OC,"inconclusive: 23.1 µM [cytotoxic, single point]",–

Further results

| Compound | Potency | activity change, negative = cytotoxicity |
| --- | --- | --- |
| Cc1ccc(Nc2nc3ccccc3c3nnc(C)n23)cc1Cl | – | inactive: 22.1% |
| CC(C)(C)c1ccc(-c2nc3n(c(=O)c2C#N)CCS3)cc1 | inconclusive: 14.6 µM [cytotoxic, single point] | – |
| CN1C(=O)C(C)(C)c2cc(S(=O)(=O)NCc3ccc(Cl)cc3)ccc21 | inconclusive: 25.9 µM [rising, single point] | – |
| C#CCOCCOCCOCCNc1nc(N2CCN(C(=O)CCCCCCCCCCNC(=O)Cn3cc(CCCCCN)nn3)CC2)nc(N2CCN(C(=O)CCCCCCCCCCNC(=O)[C@H](CO)n3cc(CCCCCN)nn3)CC2)n1 | inconclusive: 0.517 µM [rising, full curve, poor fit] | – |
| COC(=O)c1sccc1NC(=O)CC1C(=O)NCCN1C(=O)c1ccccc1 (stereo unspecified) | inconclusive: 6.51 µM [rising, partial curve] | – |
| CCN1CCN(c2ccc(S(=O)(=O)N3CCCCC3)cc2NC(=O)/C=C/c2ccc(Cl)cc2)CC1 | inconclusive: 8.2 µM [cytotoxic, partial curve, poor fit] | – |
| O=C(Nc1nc2c(s1)CCCC2)c1cccs1 | inconclusive: 29.1 µM [cytotoxic, single point] | – |
| O=C(NN=Cc1ccc2c(c1)OCO2)NN=Cc1ccc2c(c1)OCO2 | inconclusive: 29.1 µM [rising, single point] | – |
| Nc1ncnc2c1nc(Br)n2[C@@H]1O[C@@H]2COP(=O)(O)O[C@H]2[C@H]1O | inconclusive: 18.4 µM [cytotoxic, partial curve, poor fit] | – |
| CCC(C)NC(=O)N1c2ccccc2Sc2ccccc21 (stereo unspecified) | inconclusive: 23.1 µM [cytotoxic, single point] | – |
| CC(C)(C)NC(=O)CSc1nc2ccccc2n1-c1ccccc1 | – | inconclusive: -55.6% |
| CC(=O)NNC(=O)c1nc(-c2ccccc2)c(C)o1 | – | inactive: -2.82% |
| CCOc1ccc(Oc2ccccc2NC(=O)CN2C(=O)NC3(CCCC3)C2=O)cc1 | inconclusive: 16.4 µM [cytotoxic, single point] | – |
| COc1cc(-c2nnc(CSc3nnc(Nc4ccc(Oc5ccccc5)cc4)s3)o2)cc(OC)c1OC | – | inactive: -5.61% |
| CNc1c(Br)cc(C=O)cc1Br | – | inactive: 0% |
| COC(=O)C1=C(C)N(Cc2ccccc2)C(=O)N[C@H]1c1ccc(Br)cc1 | – | inactive: -4.98% |
| NS(=O)(=O)c1ccc2c(c1)C(=NO)c1cc(S(N)(=O)=O)ccc1-2 | inconclusive: 16.4 µM [rising, single point] | – |
| COc1cc(/C=C/C(=O)N2CCN(CC(O)COc3ccccc3)CC2)cc(OC)c1OC (stereo unspecified) | – | inactive: -11.2% |
| CS(=O)(=O)c1ccc(C(=O)N2CCN(Cc3ccccc3)CC2)cc1 | – | inactive: 5.93% |
| O=C(Nc1ccccc1C(=O)Nc1nnc(C(F)(F)F)s1)c1ccccc1Cl | inconclusive: 2.59 µM [cytotoxic, full curve, poor fit] | – |
| COC(=O)CCCn1cc(CN2CC(N3CCN(Cc4cccc(C)c4)CC3)CS2(=O)=O)nn1 (stereo unspecified) | inconclusive: 29.1 µM [rising, single point] | – |
| CCN(c1ccccc1)S(=O)(=O)c1ccc(Cl)c(NC(=O)CNC(C)c2ccccc2)c1 (stereo unspecified) | active: 16.4 µM | – |
| O=c1[nH]nc(CNc2ccc(O)cc2)c2ccccc12 | inconclusive: 29.1 µM [cytotoxic, single point] | – |
